# Measurements from patent US20220217970A1, “Perfusion Regulated Organ Therapeutics with Enhanced Controlled Testing” (priority 2021, published 2022).
# At least one compound was matched to its structure with a doubt left.
# System: RPL8, HO-1 and HIFα expression
# Assay: RT-qPCR of ferroptosis/hypoxia markers in perfused split lobes (Experiment 2)
# Design: species or system human
# Settings: GAPDH internal control, against normal control liver
compound,measurement,setting,value
CC(=O)N(O)CCCCCNC(=O)CCC(=O)N(O)CCCCCNC(=O)CCC(=O)N(O)CCCCCN [Deferoxamine],RPL8 expression (relative mRNA),"Experiment 2, DMAT lobe (NAIC 1.52)",0.72
same,HIFα expression (relative mRNA),"Experiment 2, DMAT lobe (NAIC 8.67), listed as DMAT",2.60
